Test results as given in publication doi:10.1101/241067.
No constants are given. Whether binding was seen depends on the method and setting. Some binding calls cover weakened binding; strength is not graded here.

Protein sequences, listed by entry. Tags and fused reporters are not part of them. Lines headed by an entry give the natural chain unless they say otherwise; changes in a name come on top. Residues count along the entry.
UniProt P40969, residues 47-608: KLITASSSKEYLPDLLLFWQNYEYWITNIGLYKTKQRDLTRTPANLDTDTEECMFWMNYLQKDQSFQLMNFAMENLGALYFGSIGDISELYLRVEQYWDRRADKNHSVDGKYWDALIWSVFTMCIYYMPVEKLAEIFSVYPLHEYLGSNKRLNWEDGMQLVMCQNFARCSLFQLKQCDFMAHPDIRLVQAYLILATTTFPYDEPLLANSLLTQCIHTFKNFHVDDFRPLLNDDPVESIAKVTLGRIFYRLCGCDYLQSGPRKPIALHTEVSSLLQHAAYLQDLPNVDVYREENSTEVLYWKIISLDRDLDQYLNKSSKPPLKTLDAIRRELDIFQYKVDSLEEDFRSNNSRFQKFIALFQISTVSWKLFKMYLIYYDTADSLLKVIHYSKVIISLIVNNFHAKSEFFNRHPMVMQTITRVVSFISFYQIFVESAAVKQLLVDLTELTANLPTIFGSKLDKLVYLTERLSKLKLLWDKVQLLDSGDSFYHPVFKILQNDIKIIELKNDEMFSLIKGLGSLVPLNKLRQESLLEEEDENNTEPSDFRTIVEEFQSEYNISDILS
UniProt P35203: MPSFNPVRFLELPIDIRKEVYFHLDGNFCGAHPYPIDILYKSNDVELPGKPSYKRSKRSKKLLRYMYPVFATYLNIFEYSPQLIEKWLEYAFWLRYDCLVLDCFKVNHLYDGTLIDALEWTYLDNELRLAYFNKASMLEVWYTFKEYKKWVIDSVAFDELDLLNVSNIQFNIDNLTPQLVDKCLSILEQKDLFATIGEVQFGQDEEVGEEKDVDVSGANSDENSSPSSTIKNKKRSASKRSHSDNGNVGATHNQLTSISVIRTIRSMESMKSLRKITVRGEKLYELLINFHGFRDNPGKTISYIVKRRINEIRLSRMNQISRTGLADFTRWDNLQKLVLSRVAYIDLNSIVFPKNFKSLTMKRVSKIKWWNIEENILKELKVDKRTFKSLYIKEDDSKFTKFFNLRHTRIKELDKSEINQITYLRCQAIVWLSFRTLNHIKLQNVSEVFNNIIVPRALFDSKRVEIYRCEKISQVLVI
UniProt P52286: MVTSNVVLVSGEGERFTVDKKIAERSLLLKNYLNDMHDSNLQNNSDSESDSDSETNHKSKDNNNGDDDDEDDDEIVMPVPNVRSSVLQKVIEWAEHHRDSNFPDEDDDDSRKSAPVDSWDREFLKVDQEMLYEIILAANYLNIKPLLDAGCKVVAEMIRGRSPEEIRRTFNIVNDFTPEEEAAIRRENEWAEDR

Assays:
[1] = target: Cep3ΔN (47–608) (S. cerevisiae) (UniProt P40969); assay: cryo-EM structure
Ctf13 (S. cerevisiae) = Ctf13 (S. cerevisiae) (UniProt P35203); assay: cryo-EM structure

Ctf13 (from UniProt P35203 1-478) was tested, and the binding [1] was “binds”.

With Skp1 (from UniProt P52286 1-194) the binding (Ctf13 (S. cerevisiae)) was “binds”.
